# Test results from the supplement of paper PMC8728848.
# Some of the results follow.
# B1: Protein L(B1-B4) (Finegoldia magna), Q51912 (protein)
# chain: KEETPETPETDSEEEVTIKANLIFANGSTQTAEFKGTFEKATSEAYAYADTLKKDNGEYTVDVADKGYTLNIKFAGKEKTPEEPKEEVTIKANLIYADGKTQTAEFKGTFEEATAEAYRYADALKKDNGEYTVDVADKGYTLNIKFAGKEKTPEEPKEEVTIKANLIYADGKTQTAEFKGTFEEATAEAYRYADLLAKENGKYTVDVADKGYTLNIKFAGKEKTPEEPKEEVTIKANLIYADGKTQTAEFKGTFAEATAEAYRYADLLAKENGKYTADLEDGGYTINIRFAG
# Key:
# Assay in all cases: glycan array binding signal (z-score within array); higher = stronger binding
# Conditions in all cases: glycan notation: IUPAC condensed, linker removed
# [1] = biological target: Neu5Ac(a2-3)Gal(b1-3)[Fuc(a1-4)]GlcNAc
# Method in brief: (§1)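 The binding signal is a Z-score computed within each array and averaged over linkers. Arrays of the same protein sequence at different concentrations or buffers were also averaged together. Data originate from 3228 arrays in the Consortium for Functional Glycomics database, kept only where the protein sequence was available.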
# [2] = biological target: Neu5Ac(a2-3)Gal(b1-3)[Fuc(a1-4)]GlcNAc(b1-3)Gal(b1-3)[Fuc(a1-4)]GlcNAc
# Method in brief: as §1
# [3] = biological target: Neu5Ac(a2-3)Gal(b1-3)[Fuc(a1-4)]GlcNAc(b1-3)Gal(b1-4)[Fuc(a1-3)]GlcNAc
# Method in brief: as §1
# [4] = biological target: Neu5Ac(a2-3)Gal(b1-3)[GlcNAc(b1-6)]GalNAc
# Method in brief: as §1
# [5] = biological target: Neu5Ac(a2-3)Gal(b1-3)[Neu5Ac(a2-6)]GalNAc
# Method in brief: as §1
# [6] = biological target: Neu5Ac(a2-3)Gal(b1-3)[Neu5Ac(a2-6)]GlcNAc(b1-3)[Fuc(a1-3)[Gal(b1-4)]GlcNAc(b1-6)]Gal(b1-4)Glc
# Method in brief: as §1
# [7] = biological target: Neu5Ac(a2-3)Gal(b1-3)]Neu5Ac(a2-3)Gal(b1-4)]GlcNAc
# Method in brief: as §1
# Neu5Ac(a2-3)Gal(b1-4)Glc = biological target: Neu5Ac(a2-3)Gal(b1-4)Glc
# Method in brief: as §1
# [8] = biological target: Neu5Ac(a2-3)Gal(b1-4)GlcNAc
# Method in brief: as §1
# [9] = biological target: Neu5Ac(a2-3)Gal(b1-4)GlcNAc(b1-2)Man
# Method in brief: as §1
# [10] = biological target: Neu5Ac(a2-3)Gal(b1-4)GlcNAc(b1-2)Man(a1-3)[GlcNAc(b1-4)][Neu5Ac(a2-3)Gal(b1-4)GlcNAc(b1-2)Man(a1-6)]Man(b1-4)GlcNAc(b1-4)GlcNAc
# Method in brief: as §1
# [11] = biological target: Neu5Ac(a2-3)Gal(b1-4)GlcNAc(b1-2)Man(a1-3)[Neu5Ac(a2-3)Gal(b1-4)GlcNAc(b1-2)Man(a1-6)]Man(b1-4)GlcNAc(b1-4)GlcNAc
# Method in brief: as §1
# [12] = biological target: Neu5Ac(a2-3)Gal(b1-4)GlcNAc(b1-2)Man(a1-3)[Neu5Ac(a2-3)Gal(b1-4)GlcNAc(b1-2)Man(a1-6)]Man(b1-4)GlcNAc(b1-4)[Fuc(a1-6)]GlcNAc
# Method in brief: as §1
# [13] = biological target: Neu5Ac(a2-3)Gal(b1-4)GlcNAc(b1-2)Man(a1-3)[Neu5Ac(a2-6)Gal(b1-4)GlcNAc(b1-2)Man(a1-6)]Man(b1-4)GlcNAc(b1-4)GlcNAc
# Method in brief: as §1
# [14] = biological target: Neu5Ac(a2-3)Gal(b1-4)GlcNAc(b1-2)[Neu5Ac(a2-3)Gal(b1-4)GlcNAc(b1-4)]Man(a1-3)[GlcNAc(b1-4)][Neu5Ac(a2-3)Gal(b1-4)GlcNAc(b1-2)[Neu5Ac(a2-3)Gal(b1-4)GlcNAc(b1-6)]Man(a1-6)]Man(b1-4)GlcNAc(b1-4)GlcNAc
# Method in brief: as §1
# [15] = biological target: Neu5Ac(a2-3)Gal(b1-4)GlcNAc(b1-2)[Neu5Ac(a2-3)Gal(b1-4)GlcNAc(b1-4)]Man(a1-3)[GlcNAc(b1-4)][Neu5Ac(a2-3)Gal(b1-4)GlcNAc(b1-4)Man(a1-6)]Man(b1-4)GlcNAc(b1-4)GlcNAc
# Method in brief: as §1
# [16] = biological target: Neu5Ac(a2-3)Gal(b1-4)GlcNAc(b1-2)[Neu5Ac(a2-3)Gal(b1-4)GlcNAc(b1-6)]Man(a1-6)[Neu5Ac(a2-3)Gal(b1-4)GlcNAc(b1-2)Man(a1-3)]Man(b1-4)GlcNAc(b1-4)GlcNAc
# Method in brief: as §1
# [17] = biological target: Neu5Ac(a2-3)Gal(b1-4)GlcNAc(b1-2)[Neu5Ac(a2-3)Gal(b1-4)GlcNAc(b1-6)]Man(a1-6)[Neu5Ac(a2-3)Gal(b1-4)GlcNAc(b1-2)Man(a1-3)][GlcNAc(b1-4)]Man(b1-4)GlcNAc(b1-4)GlcNAc
# Method in brief: as §1
# [18] = biological target: Neu5Ac(a2-3)Gal(b1-4)GlcNAc(b1-3)Gal
# Method in brief: as §1
# [19] = biological target: Neu5Ac(a2-3)Gal(b1-4)GlcNAc(b1-3)Gal(b1-3)GlcNAc
# Method in brief: as §1
# [20] = biological target: Neu5Ac(a2-3)Gal(b1-4)GlcNAc(b1-3)Gal(b1-4)GlcNAc
# Method in brief: as §1
# [21] = biological target: Neu5Ac(a2-3)Gal(b1-4)GlcNAc(b1-3)Gal(b1-4)GlcNAc(b1-2)Man(a1-3)[Neu5Ac(a2-3)Gal(b1-4)GlcNAc(b1-3)Gal(b1-4)GlcNAc(b1-2)Man(a1-6)]Man(b1-4)GlcNAc(b1-4)GlcNAc
# Method in brief: as §1
# [22] = biological target: Neu5Ac(a2-3)Gal(b1-4)GlcNAc(b1-3)Gal(b1-4)GlcNAc(b1-3)Gal(b1-4)GlcNAc
# Method in brief: as §1
# [23] = biological target: Neu5Ac(a2-3)Gal(b1-4)GlcNAc(b1-3)Gal(b1-4)GlcNAc(b1-3)Gal(b1-4)GlcNAc(b1-2)Man(a1-3)[Neu5Ac(a2-3)Gal(b1-4)GlcNAc(b1-3)Gal(b1-4)GlcNAc(b1-3)Gal(b1-4)GlcNAc(b1-2)Man(a1-6)]GalNAc
# Method in brief: as §1
# [24] = biological target: Neu5Ac(a2-3)Gal(b1-4)GlcNAc(b1-3)Gal(b1-4)GlcNAc(b1-3)GalNAc
# Method in brief: as §1
# [25] = biological target: Neu5Ac(a2-3)Gal(b1-4)GlcNAc(b1-3)Gal(b1-4)GlcNAc(b1-3)[Neu5Ac(a2-3)Gal(b1-4)GlcNAc(b1-3)Gal(b1-4)GlcNAc(b1-6)]GalNAc
# Method in brief: as §1
# [26] = biological target: Neu5Ac(a2-3)Gal(b1-4)GlcNAc(b1-3)Gal(b1-4)GlcNAc(b1-6)[Gal(b1-3)]GalNAc
# Method in brief: as §1
# [27] = biological target: Neu5Ac(a2-3)Gal(b1-4)GlcNAc(b1-3)Gal(b1-4)[Fuc(a1-3)]GlcNAc
# Method in brief: as §1
# [28] = biological target: Neu5Ac(a2-3)Gal(b1-4)GlcNAc(b1-3)GalNAc
# Method in brief: as §1
# [29] = biological target: Neu5Ac(a2-3)Gal(b1-4)GlcNAc(b1-3)[Neu5Ac(a2-3)Gal(b1-4)GlcNAc(b1-6)]GalNAc
# Method in brief: as §1
binder,measurement,setting,value
B1,glycan array binding signal (z-score),[1],-0.716
same,glycan array binding signal (z-score),[2],0.953
same,glycan array binding signal (z-score),[3],1.63
same,glycan array binding signal (z-score),[4],-0.677
same,glycan array binding signal (z-score),[5],0.854
same,glycan array binding signal (z-score),[6],-0.951
same,glycan array binding signal (z-score),[7],-0.478
same,glycan array binding signal (z-score),Neu5Ac(a2-3)Gal(b1-4)Glc,0.184
same,glycan array binding signal (z-score),[8],-0.799
same,glycan array binding signal (z-score),[9],0.654
same,glycan array binding signal (z-score),[10],-0.728
same,glycan array binding signal (z-score),[11],-0.503
same,glycan array binding signal (z-score),[12],1.45
same,glycan array binding signal (z-score),[13],-1.02
same,glycan array binding signal (z-score),[14],-0.913
same,glycan array binding signal (z-score),[15],-0.805
same,glycan array binding signal (z-score),[16],0.844
same,glycan array binding signal (z-score),[17],-0.715
same,glycan array binding signal (z-score),[18],-0.978
same,glycan array binding signal (z-score),[19],-0.446
same,glycan array binding signal (z-score),[20],-1
same,glycan array binding signal (z-score),[21],1.16
same,glycan array binding signal (z-score),[22],-1.05
same,glycan array binding signal (z-score),[23],2.34
same,glycan array binding signal (z-score),[24],0.742
same,glycan array binding signal (z-score),[25],0.607
same,glycan array binding signal (z-score),[26],0.685
same,glycan array binding signal (z-score),[27],-0.359
same,glycan array binding signal (z-score),[28],-0.004
same,glycan array binding signal (z-score),[29],-0.878

# A different layout for part of the listing above.
binder | measurement | setting | value
B1 | glycan array binding signal (z-score) | [10] | -0.728
same | glycan array binding signal (z-score) | [12] | 1.45
same | glycan array binding signal (z-score) | [15] | -0.805
same | glycan array binding signal (z-score) | [16] | 0.844
same | glycan array binding signal (z-score) | [26] | 0.685
